Taken from: PubChem BioAssay AID504786 (Drosophila RNAi Screening Center, 2011)
Screen: 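Positive regulators of HIF-driven reporter output in Drosophila cells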 (primary screen). Cell system: Drosophila S2 cells with a stable HIF luciferase reporter. Knock-down reagent: long dsRNA against Drosophila genes, about 0.2 µg dsRNA per well of a 384-well plate. Time to read-out: three days of knock-down, then 20 h of DFO before reading. Conditions: desferrioxamine (DFO) at 100 µM, an iron chelator that mimics hypoxia, for 20 h. Measured: 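Firefly luciferase driven by the mouse ldh-a hypoxia-response element, measured after 20 h of 100 µM DFO; z-scores per plate, higher means more signal lost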. Scale: z-score: higher = stronger loss of HIF reporter signal.
In all, the deposit lists about 21,000 reagents; this is an unselected part of those that have a named target and a result. 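Primary screen; positive scores mean lost reporter signal, so the sign may be inverted from the usual convention.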 Names joined by + are all predicted targets of the reagent.

Obp57c [DRSC06384]
- z-score, replicate 1: 0
- z-score, replicate 2: -0.1

Rpn3 [DRSC03318]
- z-score, replicate 1: 5.7
- z-score, replicate 2: 4.6

spz5 [DRSC08645]
- z-score, replicate 1: -0.2
- z-score, replicate 2: 0.6

5-HT1B [DRSC05031]
- z-score, replicate 1: -0.2
- z-score, replicate 2: -0.2

5-HT1B [DRSC05769]
- z-score, replicate 1: 3.6
- z-score, replicate 2: 4.1

CG33303 [DRSC02848]
- z-score, replicate 1: 0.2
- z-score, replicate 2: 0.4

rdog [DRSC14431]
- z-score, replicate 1: -0.3
- z-score, replicate 2: -0.7

yellow-g2 [DRSC08338]
- z-score, replicate 1: -0.2
- z-score, replicate 2: -0.4

Mcad [DRSC09871]
- z-score, replicate 1: -0.3
- z-score, replicate 2: -0.4

Ack-like [DRSC07500]
- z-score, replicate 1: -0.2
- z-score, replicate 2: -0.2

CG17564 [DRSC02626]
- z-score, replicate 1: -0.4
- z-score, replicate 2: 0.2

Su(fu) [DRSC16871]
- z-score, replicate 1: -0.3
- z-score, replicate 2: -0.3

CG15741 [DRSC19707]
- z-score, replicate 1: -0.3
- z-score, replicate 2: 0.3

CG14073 [DRSC10078]
- z-score, replicate 1: -0.3
- z-score, replicate 2: -0.2

OtopLc [DRSC18082]
- z-score, replicate 1: -0.2
- z-score, replicate 2: -0.6

OtopLc [DRSC18083]
- z-score, replicate 1: 0
- z-score, replicate 2: -0.1

OtopLc [DRSC18132]
- z-score, replicate 1: -0.3
- z-score, replicate 2: -0.6

Ada2a [DRSC16206]
- z-score, replicate 1: -1.1
- z-score, replicate 2: 0

An excerpt taken from the entries so far, as a working copy:
CG14073 [DRSC10078]
- z-score, replicate 1: -0.3
- z-score, replicate 2: -0.2

OtopLc [DRSC18082]
- z-score, replicate 1: -0.2
- z-score, replicate 2: -0.6

OtopLc [DRSC18083]
- z-score, replicate 1: 0
- z-score, replicate 2: -0.1

OtopLc [DRSC18132]
- z-score, replicate 1: -0.3
- z-score, replicate 2: -0.6

Additional results follow.
Rchy1 [DRSC02542]
- z-score, replicate 1: 1.8
- z-score, replicate 2: 0.3

Hsc70-5 [DRSC07442]
- z-score, replicate 1: 0
- z-score, replicate 2: -0.2

Or2a [DRSC18690]
- z-score, replicate 1: -0.1
- z-score, replicate 2: 0.1

CG3081 [DRSC18571]
- z-score, replicate 1: -0.2
- z-score, replicate 2: -0.2

Gr22b [DRSC20911]
- z-score, replicate 1: 0.1
- z-score, replicate 2: 0.1

Ku80 [DRSC02699]
- z-score, replicate 1: -0.3
- z-score, replicate 2: -0.2

Lfg [DRSC06853]
- z-score, replicate 1: -0.2
- z-score, replicate 2: -0.6

GstO2 [DRSC10691]
- z-score, replicate 1: -0.3
- z-score, replicate 2: 0.2

CG31249 [DRSC16248]
- z-score, replicate 1: -0.3
- z-score, replicate 2: 0.5

CG32750 [DRSC18848]
- z-score, replicate 1: -0.2
- z-score, replicate 2: 0.2

CG5846 [DRSC02904]
- z-score, replicate 1: -0.5
- z-score, replicate 2: -1.2

CG12081 [DRSC17802]
- z-score, replicate 1: -0.3
- z-score, replicate 2: -0.2

dgt5 [DRSC07280]
- z-score, replicate 1: -0.2
- z-score, replicate 2: -0.3

dpr16 [DRSC12217]
- z-score, replicate 1: -0.1
- z-score, replicate 2: 0.6

dpr16 [DRSC12249]
- z-score, replicate 1: 0.1
- z-score, replicate 2: -0.3

Rab9Db + Rab9Fa [DRSC18445]
- z-score, replicate 1: -0.3
- z-score, replicate 2: -1

CG1275 [DRSC08294]
- z-score, replicate 1: -0.2
- z-score, replicate 2: 0.4

CR40354 [DRSC20923]
- z-score, replicate 1: 0.9
- z-score, replicate 2: 0.3

CG14326 [DRSC14805]
- z-score, replicate 1: 0
- z-score, replicate 2: 0.3

Socs16D [DRSC20087]
- z-score, replicate 1: -0.1
- z-score, replicate 2: -0.2

Npc2g [DRSC14296]
- z-score, replicate 1: -0.5
- z-score, replicate 2: -0.4

CG2975 [DRSC00556]
- z-score, replicate 1: -0.1
- z-score, replicate 2: -0.2
